Reference: PMC10581057

Target: T1, OmpR (UniProt E0SJT3)
T1 sequence (looked up): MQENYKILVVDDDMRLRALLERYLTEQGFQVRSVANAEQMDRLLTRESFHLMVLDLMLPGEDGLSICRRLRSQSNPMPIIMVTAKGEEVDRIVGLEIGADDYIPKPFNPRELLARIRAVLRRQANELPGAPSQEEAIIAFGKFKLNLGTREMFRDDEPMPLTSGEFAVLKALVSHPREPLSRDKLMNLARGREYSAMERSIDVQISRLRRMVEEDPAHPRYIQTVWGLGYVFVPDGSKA
Test: EMSA
Details: 100 ng opgC control fragment present; 100 ng target DNA + 100 ng control DNA, various OmpR-His6 amounts, gel shift buffer (composition and pH not given), 30 min, room temperature; 6% acrylamide TBE gel; recombinant protein; residues 1-239; protein details: His6 (pET100/D-TOPO vector tag); label: none (ethidium bromide); probe letters rebuilt from the primers and the genome

TATTGTCGACGCCGTCTTTATTGTACACTTCAGCCGCGTTAGCTGCACCGGCAGCCAACAGAGCCGGGATTACCACTGCAAGAAGATTGCGCTTCATCATTATTACCCTCATTGGTGTTATTAAGACAGCTGGATCACAGTAAAAGAATTCTGACGGAACTTTAATGTGAATCCAGTTGTCTTCCTGTGTCTGAACGCAGTTTTCCATTCACCCGCCCGTTAATCTACTCTTTAAATGATACTAATTTCTAATTCGAGTAACCATTGGAAAATATGTGTTTCAAATTGTAAAATTTACGGAACTTTGTGAGCAAACTCTAAAATAAAAAAAGAAGGGCACCCATAAGGTGCCCTTCTTATTACATATATCTGTTTTTCTTATGTTATTTTTCGCTTAGAAGGTGGCGCTGCGCGGTGTGCGCGGGAACGGAATGACATCGCGCACATTTTGTACACCGGTTACATAAGCAATCAAACGTTCAAAACCAAGACCGAAACCAGAGTGAGGAATGGTGCCATAACGACGCAGATCACGGTACCACCAGTAATCTTCCTTACTGAGTCCCATTTCTTCCAGGCGGATATCCAACTGTTCCAGACGTTCTTCACG (double strand) [ompF upstream region]
binding result: binds

CAGAGGACGCGAGGTGCTTGCCAGCGGCACCACTGGCACCCTAAGCTTCCGGGATTCTGTCTCCCGGTAATCTGCAGTATGGCTGATATATTTATAAGAATAAAACTCGTGCTTAAATCAGTATTTAAAATCACATTTAAAATTAATAAAAACAAAACAAACAAATCCATCTTCAACCCATTGTTTATTATTAAAAAATAAAGAAATAAAAATGAAATGTAATGTTTTGATTCGAATAAAAACATAATATTTCACCAACGCCGTTCTCGTATCATTTCCAACCTGACTAAAGCTTACCCCCGATGTGAGACTGCTGATGGGCACAACAAAGCATCGGCAATATTTCTGCTGATTATCTATTGCCGCCAGAAAGAAGTGTCTCAATGGTCAATAACACATAACGAGGGTAATGCGAATGATGAAGCACTTGATAAATACGCTAGCCACATCAGTATTGTTATTTTCAACTGGTCTGGTCAGTGCGGCTGAGGTTTATAATAAAGATGGTAATAAGCTTGATCTGTATGGCAAAGTACGATCAGCTTATTACTTTGGCGATAAAACCAATAGTTTCAAAGGGAATGGTGATTCAACGTATGCACGTCTGGGGG (double strand) [ompF3 upstream region]
binding result: binds

Tags and fusion partners may be left off the protein sequences shown.
